The structures appear in SMILES notation. The list is a part of this screen's results and no random one: it is rich in T/C values a quarter to a half above the control, in often repeated tests (any T/C) and in doses without a T/C. Other doses and runs of a compound stand elsewhere. T/C: endpoint of the treated group in % of that of the vehicle group. Some entries give survivors of the animals treated and no T/C: the source files T/C as zero there, which appears to mark a toxic dose or a test without result, not a measured value. Some doses without a T/C left all or most animals alive at the check, yet need not have been tolerated: survival well below the control is almost never listed, so the zero probably covers shortened survival too. Survivors were counted at the toxicity check, usually on the fifth day, unless a day is given; later deaths do not show. Schedule codes are those of the source, taken here to give the interval after Q, in days (D) or hours (H), and the number of doses after X. Some entries hold several experiments; the results are listed from low to high. Where survival is the endpoint, this PubChem deposit counts one and a half times the control or more as active, and values a quarter to a half above the control carry no call in these data; other NCI protocols may use other cut-offs.

The test system of this assay is P388 leukemia ip, CD2F1 mice, survival T/C. Nature of the assay: NCI In Vivo Anticancer Drug Screen. Data for tumor model P388 Leukemia (intraperitoneal) in CD2F1 (CDF1) mice. The following applies: T/C endpoint: median survival time, higher T/C = longer survival.
[1] abbreviates: dose: 60.0 mg/kg/injection, schedule: Q01DX005 (ip), vehicle: saline with Tween-80.
[2] abbreviates: dose: 120.0 mg/kg/injection, schedule: Q01DX005 (ip), vehicle: saline with Tween-80.
Setting [3] is: dose: 240.0 mg/kg/injection, schedule: Q01DX005 (ip), vehicle: saline with Tween-80.
[4] abbreviates: dose: 400.0 mg/kg/injection, schedule: Q04DX003 (ip), vehicle: saline with Tween-80.
[5] abbreviates: dose: 200.0 mg/kg/injection, schedule: Q01DX009 (ip), vehicle: saline.
Setting [6] is: dose: 240.0 mg/kg/injection, schedule: Q01DX005 (ip), vehicle: Klucel (hydroxypropylcellulose) (HPC).

On to `CCOP(=O)(OCC)c1nc(Cl)nc(Cl)c1SC(F)(F)F`, for which the survivor count reads like this: under setting [1], 3 of 6; under setting [2], 0 of 6; under setting [3], 0 of 6. As to `COc1ccc(CCNC(=O)CC2CCN(C)CC2)cc1OC`, the survivor count under setting [4] is listed as 0 of 6. For `CCC(c1ccc(O)cc1)C(CC)c1ccc(O)c(CN(C)C)c1` (stereo unspecified), the survivor count under setting [1] is 5 of 6 and the survivor count under setting [3] is 0 of 6. `N#CC1(C#N)C(CCl)C1(C#N)C#N`: the survivor count is recorded as 1 of 6 (dose: 100.0 mg/kg/injection, schedule: Q01DX009 (ip), vehicle: saline) and 0 of 6 under setting [5]. As for `CCOC(=O)/C=C(\C)C(F)(F)F`, the T/C under setting [2] was 136 % of control. `CCCCN(CCCC)CN(CCCC)CCCC`: the survivor count runs as follows: (dose: 100.0 mg/kg/injection, schedule: Q01DX005 (ip), vehicle: saline with Tween-80) 2 of 6; (dose: 200.0 mg/kg/injection, schedule: Q01DX005 (ip), vehicle: saline with Tween-80) 0 of 6. For the compound `C[C@H]1CCC2=C(C1)NC(N)=NC2(C)C`, the survivor count runs as follows: (dose: 100.0 mg/kg/injection, schedule: Q04DX002 (ip), vehicle: saline with Tween-80) 0 of 6; (dose: 200.0 mg/kg/injection, schedule: Q04DX002 (ip), vehicle: saline with Tween-80) 0 of 6; (dose: 400.0 mg/kg/injection, schedule: Q04DX002 (ip), vehicle: saline with Tween-80) 0 of 6. Take `COC(=O)c1cc(-c2cccc3ccccc23)[nH]c(=O)c1C#N`: the survivor count under setting [3] is recorded as 3 of 6. With `CCNC(=O)C1CCN(Cc2c[nH]c3ccccc23)CC1`, the survivor count under setting [4] is reported as 0 of 6. With `COc1cc(NCC(C)(O)CN(CC(C)C)C(C)C)c2ncccc2c1` (stereo unspecified), the survivor count is reported as 0 of 5 (dose: 100.0 mg/kg/injection, schedule: Q01DX005 (ip), vehicle: saline) and 0 of 5 (dose: 200.0 mg/kg/injection, schedule: Q01DX005 (ip), vehicle: saline). Regarding `OC(c1cc2cc(Cl)ccc2c2cc(C(F)(F)F)ccc12)C1CCCCN1` (stereo unspecified), the survivor count (dose: 25.0 mg/kg/injection, schedule: Q01DX009 (ip), vehicle: saline with Tween-80) is on record as 6 of 6; the survivor count (dose: 50.0 mg/kg/injection, schedule: Q01DX009 (ip), vehicle: saline with Tween-80) is given as 2 of 6; the survivor count (dose: 100.0 mg/kg/injection, schedule: Q01DX009 (ip), vehicle: saline with Tween-80) is recorded as 0 of 6; the survivor count (dose: 200.0 mg/kg/injection, schedule: Q01DX009 (ip), vehicle: saline with Tween-80) is 0 of 6. Take `O=C1CCSc2ccccc21`: under “dose: 400.0 mg/kg/injection, schedule: Q01DX009 (ip), vehicle: saline with Tween-80”, the survivor count was 2 of 6.

Regarding `COc1cc2c(c(OC)c1OC)-c1ccc(NCc3ccccc3)c(=O)cc1[C@@H](NC(C)=O)CC2`, the T/C by setting is: (dose: 6.25 mg/kg/injection, schedule: Q01DX009 (ip), vehicle: Klucel (hydroxypropylcellulose) (HPC)) 125 and 127 % of control; (dose: 12.5 mg/kg/injection, schedule: Q01DX009 (ip), vehicle: Klucel (hydroxypropylcellulose) (HPC)) 148 % of control. Besides, the survivor count (dose: 25.0 mg/kg/injection, schedule: Q01DX009 (ip), vehicle: Klucel (hydroxypropylcellulose) (HPC)) is 1 of 6, 3 of 6, 4 of 6. In the case of `CCOc1cccc2nncn12`, the survivor count (dose: 400.0 mg/kg/injection, schedule: Q01DX001 (ip), vehicle: saline) is 0 of 6. As to `CC1(C)CC(=O)C=C(OS(=O)(=O)C(F)(F)F)C1`, the survivor count was 4 of 6 (dose: 100.0 mg/kg/injection, schedule: Q01DX009 (ip), vehicle: distilled water + Tween-80) and 0 of 6 (dose: 200.0 mg/kg/injection, schedule: Q01DX009 (ip), vehicle: distilled water + Tween-80).

As to `CCOC1CC(C)(O)Cc2cc3c(c(O)c21)C(=O)c1c(O)cc2c(c1C3=O)OC1OC2(C)C(O)C(N(C)C)C1O` (stereo unspecified), the T/C runs as follows: (dose: 0.84 mg/kg/injection, schedule: Q01DX009 (ip), vehicle: other) 125 % of control; (dose: 1.25 mg/kg/injection, schedule: Q01DX009 (ip), vehicle: other) 141 and 142 % of control; (dose: 1.68 mg/kg/injection, schedule: Q01DX009 (ip), vehicle: other) 137 % of control. The survivor count runs as follows: (dose: 20.0 mg/kg/injection, schedule: Q01DX009 (ip), vehicle: other) 6 of 6; (dose: 26.0 mg/kg/injection, schedule: Q01DX009 (ip), vehicle: other) 4 of 6. For `COc1ccc2c(=O)c3cc([N+](=O)[O-])ccc3n(C)c2c1`, the survivor count by setting is: (dose: 200.0 mg/kg/injection, schedule: Q01DX001 (ip), vehicle: saline with Tween-80) 6 of 6; (dose: 400.0 mg/kg/injection, schedule: Q01DX001 (ip), vehicle: saline with Tween-80) 6 of 6.

On to `CCCn1c(O)c(C(=O)CC)sc1=S`, for which, under setting [6], the survivor count is on record as 0 of 6. With `NC(=O)c1[nH]cnc1/N=N/N(CCCl)Cc1ccccc1`, the T/C is 136 % of control (dose: 66.0 mg/kg/injection, schedule: Q01DX009 (ip), vehicle: Klucel (hydroxypropylcellulose) (HPC)) and 143 % of control (dose: 100.0 mg/kg/injection, schedule: Q04DX003 (ip), vehicle: Klucel (hydroxypropylcellulose) (HPC)).

Regarding `Cc1nc2[nH]c(=O)[nH]c(=O)c2[nH]1`, under setting [4], the survivor count was 4 of 6. For `O=C(NC(Cc1c[nH]c2ccccc12)C(=O)NC(Cc1ccccc1)C(=O)O)OCc1ccccc1` (stereo unspecified), the survivor count reads like this: (dose: 100.0 mg/kg/injection, schedule: Q01DX005 (ip), vehicle: Klucel (hydroxypropylcellulose) (HPC)) 6 of 6; (dose: 200.0 mg/kg/injection, schedule: Q01DX005 (ip), vehicle: Klucel (hydroxypropylcellulose) (HPC)) 6 of 6. Regarding `CCOC(=O)NN(C(=O)OCC)C(C)(C)C(C)=O`, under “dose: 100.0 mg/kg/injection, schedule: Q01DX001 (ip), vehicle: saline”, the survivor count is on record as 3 of 6. Regarding `Cn1cc(F)c(=O)n(C)c1=O`, the survivor count (dose: 500.0 mg/kg/injection, schedule: Q04DX002 (ip), vehicle: saline) was 4 of 6. On to `O=NN(CCCl)C(=O)Nc1cc(=O)[nH]c(SCc2ccccc2)n1`, for which the T/C was 139 % of control (dose: 20.12 mg/kg/injection, schedule: Q04DX002 (ip), vehicle: Klucel (hydroxypropylcellulose) (HPC)) and 141 % of control (dose: 80.5 mg/kg/injection, schedule: Q04DX002 (ip), vehicle: Klucel (hydroxypropylcellulose) (HPC)). As to `COc1cc(C(=O)O)on1`, the survivor count by setting is: (dose: 50.0 mg/kg/injection, schedule: Q01DX009 (ip), vehicle: saline) 5 of 6; under setting [5], 5 of 6. With `Fc1ccc2nc3ccccc3c(SCCCCCCSc3c4ccccc4nc4ccc(F)cc34)c2c1`, under setting [6], the survivor count is given as 6 of 6. Consider `O=NN(CCF)C(=O)NC12CC3CC(CC(C3)C1)C2`, for which the survivor count was 2 of 6 (dose: 200.0 mg/kg/injection, schedule: Q04DX003 (ip), vehicle: Klucel (hydroxypropylcellulose) (HPC)) and 0 of 6 (dose: 400.0 mg/kg/injection, schedule: Q04DX003 (ip), vehicle: Klucel (hydroxypropylcellulose) (HPC)).

(Values after PubChem BioAssay AID330 (DTP/NCI, 2004).)
